PubChem BioAssay AID493246, Drosophila RNAi Screening Center | 2011
The screen tested about 21,000 reagents; below is an unselected part of those with a known target gene and a result. Of all reagents, 429 (2%) got an active call. 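Values are raw and not normalised between plates; calls rest on per-plate z-scores that were not deposited.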 No sequences are given here. Not given: the amount of reagent, the time to read-out.

Assay: 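Genes fly cells need to grow and stay alive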 (primary screen)
Cell system: Drosophila Kc and S2R+ cells
Knock-down reagent: long dsRNA against Drosophila genes
Measurement: 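Raw, unnormalised count of remaining cells in each well; per-plate z-scores of cell number underlie the calls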
Reading the numbers: Kc cell number and S2R+ cell number: higher = more cells remaining
Call rule: 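Counted as a hit if cell number falls by a z-score of at least 3 within its plate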

| Target gene | amplicon | Kc cell number, rep 1 | Kc cell number, rep 2 | S2R+ cell number, rep 1 | S2R+ cell number, rep 2 | activity call |
| --- | --- | --- | --- | --- | --- | --- |
| CG33337 | DRSC13632 | 1.31e6 | 1.35e6 | 1.04e6 | 1.13e6 | inactive |
| Mob3 (MOB kinase activator 3) | DRSC02791 | 1.70e6 | 1.80e6 | 1.33e6 | 1.45e6 | inactive |
| Cyp6a19 (Cytochrome P450 6a19) | DRSC07379 | 1.38e6 | 1.46e6 | 9.89e5 | 8.79e5 | inactive |
| CG32085 | DRSC10138 | 1.45e6 | 1.53e6 | 1.26e6 | 1.42e6 | inactive |
| CG32085 | DRSC10139 | 1.54e6 | 1.56e6 | 1.27e6 | 1.56e6 | inactive |
| CG32085 | DRSC10576 | 1.53e6 | 1.57e6 | 1.22e6 | 1.39e6 | inactive |
| CG15760 | DRSC19725 | 1.67e6 | 1.58e6 | 1.16e6 | 1.32e6 | inactive |
| CG34319 (retired record) | DRSC18138 | 2.87e5 | – | 5.33e5 | – | active |
| Ssb-c31a (Single stranded-binding protein c31A) | DRSC03443 | 1.74e6 | 1.76e6 | 1.17e6 | 1.35e6 | inactive |
| aust (australin) | DRSC02558 | 1.46e6 | 1.56e6 | 1.14e6 | 1.33e6 | inactive |
| Pkc98E (Protein C kinase 98E) | DRSC16791 | 5.33e5 | – | 8.09e5 | – | inactive |
| CG2269 | DRSC06833 | 1.47e6 | 1.53e6 | 1.21e6 | 1.27e6 | inactive |
| CG12209 | DRSC06119 | 1.51e6 | 1.52e6 | 1.25e6 | 1.29e6 | inactive |
| CG6503 | DRSC16056 | 1.75e6 | 1.87e6 | 9.79e5 | 1.17e6 | inactive |

3 of these entries in another layout:
Target gene | amplicon | Kc cell number, rep 1 | Kc cell number, rep 2 | S2R+ cell number, rep 1 | S2R+ cell number, rep 2 | activity call
Cyp6a19 (Cytochrome P450 6a19) | DRSC07379 | 1.38e6 | 1.46e6 | 9.89e5 | 8.79e5 | inactive
CG32085 | DRSC10138 | 1.45e6 | 1.53e6 | 1.26e6 | 1.42e6 | inactive
CG32085 | DRSC10139 | 1.54e6 | 1.56e6 | 1.27e6 | 1.56e6 | inactive

Additional reagents follow:
| Target gene | amplicon | Kc cell number, rep 1 | Kc cell number, rep 2 | S2R+ cell number, rep 1 | S2R+ cell number, rep 2 | activity call |
| --- | --- | --- | --- | --- | --- | --- |
| CG31517 | DRSC13010 | 1.67e6 | 2.14e6 | 1.13e6 | 1.31e6 | inactive |
| Uxt (Uxt prefoldin-like subunit) | DRSC01962 | 1.55e6 | 1.63e6 | 1.23e6 | 1.30e6 | inactive |
| Adgf-A2 (Adenosine deaminase-related growth factor A2) | DRSC09507 | 1.34e6 | 1.49e6 | 1.11e6 | 1.24e6 | inactive |
| Npc2a (Niemann-Pick type C-2a) | DRSC00698 | 1.48e6 | 1.54e6 | 1.08e6 | 1.20e6 | inactive |
| Zpr1 | DRSC18432 | 6.19e5 | – | 8.36e5 | – | inactive |
| wry (weary) | DRSC00352 | 1.53e6 | 1.61e6 | 9.67e5 | 1.10e6 | inactive |
| wry (weary) | DRSC00456 | 1.55e6 | 1.78e6 | 1.16e6 | 1.11e6 | inactive |
| CG9813 | DRSC16569 | 1.68e6 | 1.73e6 | 1.31e6 | 1.46e6 | inactive |
| PMCA (plasma membrane calcium ATPase) | DRSC17113 | 1.15e6 | 1.49e6 | 1.04e6 | 1.11e6 | inactive |
| PMCA (plasma membrane calcium ATPase) | DRSC17114 | 1.43e6 | 1.59e6 | 1.01e6 | 1.12e6 | inactive |
| PMCA (plasma membrane calcium ATPase) | DRSC17154 | 6.69e5 | – | 7.99e5 | – | inactive |
